Results are given in words; binding and its absence hold for the method and conditions named. In cells and extracts the contact can be indirect. Binding calls can cover weak binding; strength is not graded here.
Target: human RECQL5-ID mutant, FLAG-tagged (GAL::RECQL5-ID) (human) (UniProt O94762)
Experiment: co-IP; whole cell extracts of yeast expressing FLAG-tagged RECQL5 constructs from the GAL1 promoter (galactose 4 h); precipitation with FLAG antibody on Dynabeads Protein A, 3 h at 4 °C; lysis buffer 50 mM Tris HCl pH 7.5, 100 mM NaCl, 1.5 mM MgCl2, NP40, DTT; blot for Rpb1

The chains behind the UniProt entries cited, without tags or fusion partners. Where a name states a change or a piece, a line headed by the entry shows the natural chain unless it says otherwise.
UniProt O94762: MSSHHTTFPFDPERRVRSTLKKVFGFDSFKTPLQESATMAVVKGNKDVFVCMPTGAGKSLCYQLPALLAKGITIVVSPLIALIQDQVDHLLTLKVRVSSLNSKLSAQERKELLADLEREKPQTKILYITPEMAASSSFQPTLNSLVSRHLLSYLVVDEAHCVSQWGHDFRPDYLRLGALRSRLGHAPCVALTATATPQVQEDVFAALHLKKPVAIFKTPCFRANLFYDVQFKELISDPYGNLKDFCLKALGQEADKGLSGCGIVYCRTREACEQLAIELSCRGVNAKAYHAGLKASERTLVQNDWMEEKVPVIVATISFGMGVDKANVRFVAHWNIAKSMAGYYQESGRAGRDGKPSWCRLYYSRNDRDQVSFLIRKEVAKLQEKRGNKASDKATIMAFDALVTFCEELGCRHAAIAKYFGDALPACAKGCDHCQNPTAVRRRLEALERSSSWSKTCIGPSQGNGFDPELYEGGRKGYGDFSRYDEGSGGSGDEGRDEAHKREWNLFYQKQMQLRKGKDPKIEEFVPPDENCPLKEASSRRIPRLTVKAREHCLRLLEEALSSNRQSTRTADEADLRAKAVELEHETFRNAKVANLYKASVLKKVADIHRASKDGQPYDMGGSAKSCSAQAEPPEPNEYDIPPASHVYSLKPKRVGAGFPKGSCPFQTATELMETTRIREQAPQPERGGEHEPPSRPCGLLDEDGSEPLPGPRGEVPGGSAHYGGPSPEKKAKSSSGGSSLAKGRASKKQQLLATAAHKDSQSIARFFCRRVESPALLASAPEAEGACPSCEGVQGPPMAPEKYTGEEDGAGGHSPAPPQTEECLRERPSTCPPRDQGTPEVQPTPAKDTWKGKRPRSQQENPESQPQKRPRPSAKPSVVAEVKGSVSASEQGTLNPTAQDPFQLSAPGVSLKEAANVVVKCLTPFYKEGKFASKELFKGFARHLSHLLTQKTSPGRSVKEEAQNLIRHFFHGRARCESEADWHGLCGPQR
UniProt P04050: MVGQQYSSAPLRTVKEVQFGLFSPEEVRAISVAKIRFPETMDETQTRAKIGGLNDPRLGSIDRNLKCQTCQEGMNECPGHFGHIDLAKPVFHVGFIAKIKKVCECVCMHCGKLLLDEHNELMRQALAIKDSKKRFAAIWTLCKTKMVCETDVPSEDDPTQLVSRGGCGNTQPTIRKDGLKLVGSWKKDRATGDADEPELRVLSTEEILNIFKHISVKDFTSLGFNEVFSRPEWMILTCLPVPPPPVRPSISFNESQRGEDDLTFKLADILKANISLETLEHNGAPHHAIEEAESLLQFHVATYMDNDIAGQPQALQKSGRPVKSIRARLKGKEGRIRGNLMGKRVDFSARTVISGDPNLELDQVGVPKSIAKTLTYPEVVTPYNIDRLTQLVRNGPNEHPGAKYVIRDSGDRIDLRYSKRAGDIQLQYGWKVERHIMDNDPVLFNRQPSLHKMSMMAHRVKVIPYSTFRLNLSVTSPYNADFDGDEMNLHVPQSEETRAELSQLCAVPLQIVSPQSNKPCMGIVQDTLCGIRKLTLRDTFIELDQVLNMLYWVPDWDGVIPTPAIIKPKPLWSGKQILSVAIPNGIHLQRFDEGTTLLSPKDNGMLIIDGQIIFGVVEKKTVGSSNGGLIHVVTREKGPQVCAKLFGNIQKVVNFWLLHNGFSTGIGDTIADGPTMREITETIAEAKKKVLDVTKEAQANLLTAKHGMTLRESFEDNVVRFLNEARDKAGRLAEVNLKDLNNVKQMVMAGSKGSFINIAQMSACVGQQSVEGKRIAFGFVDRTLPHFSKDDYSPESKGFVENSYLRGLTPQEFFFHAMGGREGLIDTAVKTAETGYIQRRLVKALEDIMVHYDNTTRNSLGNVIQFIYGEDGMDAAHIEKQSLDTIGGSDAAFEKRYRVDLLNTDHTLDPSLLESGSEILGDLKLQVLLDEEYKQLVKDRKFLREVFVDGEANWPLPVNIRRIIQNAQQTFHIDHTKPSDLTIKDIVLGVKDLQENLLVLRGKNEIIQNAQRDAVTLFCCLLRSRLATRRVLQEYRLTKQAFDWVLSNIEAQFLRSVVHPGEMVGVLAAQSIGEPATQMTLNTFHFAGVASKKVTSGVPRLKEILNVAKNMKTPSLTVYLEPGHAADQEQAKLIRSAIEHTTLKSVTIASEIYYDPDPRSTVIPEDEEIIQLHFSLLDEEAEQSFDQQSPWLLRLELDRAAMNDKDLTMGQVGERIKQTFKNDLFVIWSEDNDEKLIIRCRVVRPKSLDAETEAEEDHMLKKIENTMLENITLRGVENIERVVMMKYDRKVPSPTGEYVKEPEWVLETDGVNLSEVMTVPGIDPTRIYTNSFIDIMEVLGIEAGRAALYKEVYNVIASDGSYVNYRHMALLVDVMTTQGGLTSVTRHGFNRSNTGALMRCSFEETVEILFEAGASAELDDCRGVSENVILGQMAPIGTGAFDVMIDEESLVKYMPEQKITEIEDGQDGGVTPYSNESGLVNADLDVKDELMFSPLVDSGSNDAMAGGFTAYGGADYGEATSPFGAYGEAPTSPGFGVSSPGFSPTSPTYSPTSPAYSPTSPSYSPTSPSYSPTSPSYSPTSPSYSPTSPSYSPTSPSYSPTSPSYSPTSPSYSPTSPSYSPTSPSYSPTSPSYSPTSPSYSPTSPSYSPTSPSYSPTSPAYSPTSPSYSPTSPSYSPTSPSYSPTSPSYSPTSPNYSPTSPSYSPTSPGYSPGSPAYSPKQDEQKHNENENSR

Question: “Rpb1 subunit of yeast RNA polymerase II (from UniProt P04050 1-1733)” was tested. Which binding did it give?
Answer: The binding was “binds”.
